Values quoted from earlier work in patent US6348491B1 (National Science Council, priority 1999, dated 2002).

CC(=O)O[C@H]1C(=O)[C@@]2(C)[C@H]([C@H](OC(=O)c3ccccc3)[C@]3(O)C[C@H](OC(=O)[C@H](O)[C@@H](NC(=O)c4ccccc4)c4ccccc4)C(C)=C1C3(C)C)[C@]1(OC(C)=O)CO[C@@H]1C[C@@H]2O [paclitaxel]
solubility in water: about 0.01 mg/ml
